Experimental data published in PubChem BioAssay AID1487 (National Center for Advancing Translational Sciences (NCATS), 2009).
Where “and” joins values, the source holds several entries; their conditions need not be identical. Identical values can stand only once. This is one part of the list. The main result of the screen is listed elsewhere. These columns were measured beside it and carry no call. The list favours compounds with an active or inconclusive main result. The note in brackets gives the kind of curve behind each potency; many fits are weak.

Experiment: qHTS Assay for Modulators of Lamin A Splicing
Conditions: HeLa LMNA splicing GFP/RFP minigene ratio, 48 h
Outline: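 Read-out is the ratio of GFP to DsRed2 object intensity, acquired by 488 nm laser-scanning cytometry on HeLa lamin A-EGFP minigene reporter cells. Compound incubation 48 hrs at 37 °C in Opti-MEM with 2% FBS; DMSO 0.5% final.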

[1] = measured here: GFP splicing reporter channel
[2] = measured here: RFP viability control channel

Structure (SMILES)	AC50 [1]	AC50 [2]
CSc1ccc(C(=O)C2CCCN(Cc3cc4ccccc4[nH]3)C2)cc1 (configuration not stated)	25.1 µM [falling, partial curve]	35.5 µM [falling, partial curve]
CC(=O)N1N=C2C3CCN(CC3)C2C1c1ccccc1 (configuration not stated)	–	0.0224 µM [falling, full curve]
CCN1C(=O)c2ccccc2Sc2ccc(NC(=O)Cc3ccc(OC)c(OC)c3)cc21	1.26 µM [falling, full curve, poor fit]	–
CP(=O)(O)CCCN	–	0.141 µM [rising, full curve, poor fit]
C[C@H]1CN(C2CCC(C#N)(c3ccc(F)cc3)CC2)CC[C@@]1(C(=O)O)c1ccccc1 (some centres not stated)	1.41 µM [falling, partial curve, poor fit]	–
O=c1[nH]c(O)c(N=Nc2cc(C(F)(F)F)ccc2Cl)c(=O)[nH]1	–	28.2 µM [rising, partial curve, poor fit]
C[C@@]12CCC(O)C[C@H]1CCC1C2CC[C@]2(C)C(=O)CCC12 (some centres not stated)	–	31.6 µM [rising, single point]
CC(C)NC[C@H](O)COc1cccc2[nH]ccc12	–	0.447 µM [rising, partial curve, poor fit]
CCOC(=O)C1=C(C)OC(N)=C(C#N)C12C(=O)Nc1ccc(C)cc12 (configuration not stated)	6.31 µM [falling, single point]	6.31 µM [falling, single point]
N#Cc1cc2c(nc1SCC(=O)Nc1ccc(OC(F)(F)F)cc1)C1CCN2CC1	–	7.08 µM [falling, partial curve, poor fit]
C[C@@H]1O[C@H](O[C@H]2C[C@@H](O)[C@@]3(CO)[C@H]4[C@@H](O)C[C@]5(C)[C@@H](C6=CC(=O)OC6)CC[C@]5(O)[C@H]4CC[C@]3(O)C2)[C@@H](O)[C@H](O)[C@@H]1O	0.141 µM [falling, full curve]	0.141 µM [falling, full curve]
CC(=O)C1=NOC(CNc2ncc(C(F)(F)F)cc2Cl)C1 (configuration not stated)	0.0316 µM [rising, full curve]	0.0501 µM [rising, full curve, poor fit]
CN1CCc2c(C#N)c(Cl)nc(Cl)c2C1	–	14.1 µM [rising, partial curve]
COC(=O)c1c(C)n(Cc2ccc3c(c2)OCO3)c2ccc(O)cc12	–	14.1 µM [rising, partial curve]
Cc1cccn2c(=O)c3cc(C(=O)N4CCC5(CC4)OCCO5)n(C)c3nc12	5.62 µM [falling, full curve, poor fit]	5.01 µM [falling, full curve]
O=C1CN=C(c2ccc(F)cc2)c2oc3ccccc3c2N1	0.0141 µM [rising, full curve, poor fit]	–
Cc1ccc(Cn2cccc(C(=O)Nc3cc([N+](=O)[O-])ccc3C)c2=O)cc1	0.0178 µM [falling, full curve, poor fit]	–
COc1ccc(C2=C(C(C)=O)Sc3nnc(-c4ccc(Cl)cc4)n3N2C(C)=O)cc1OC	35.5 µM [falling, single point]	5.62 µM [falling, single point]
OCC(O)CS (configuration not stated)	0.00891 µM [falling, full curve, poor fit]	17.8 µM [falling, partial curve, poor fit]
S=C=S	–	0.158 µM [rising, full curve, poor fit]
C#CCOC(=O)C1=CCCN(C)C1	0.00447 µM [falling, full curve, poor fit]	0.00794 µM [falling, full curve, poor fit]
COc1ccc(OCC(=O)N2CCN(Cc3cc(=O)n4nc(-c5ccccc5C)sc4n3)CC2)cc1	35.5 µM [falling, single point]	–
Nc1ncnc2c1ncn2[C@@H]1O[C@H](COP(=O)(O)CP(=O)(O)OP(=O)(O)O)[C@H](O)[C@H]1O	–	15.8 µM [falling, single point]
c1ccc(CCCN2CCN(CCOC(c3ccccc3)c3ccccc3)CC2)cc1	25.1 µM [falling, single point]	17.8 µM [falling, partial curve]
O=C(OC1CCN(CCCl)CC1)C(c1ccccc1)c1ccccc1	11.2 µM [falling, partial curve]	14.1 µM [falling, partial curve]
NC(=O)C1=CN(C2OC(COP(=O)(O)OP(=O)(O)OC[C@H]3O[C@@H](n4cnc5c(N)ncnc54)[C@H](OP(=O)(O)O)[C@H]3O)C(O)C2O)C=CC1 (some centres not stated)	–	14.1 µM [rising, single point]
C[N+]1([O-])[C@@H]2CC[C@H]1CC(OC(=O)[C@@H](CO)c1ccccc1)C2 (some centres not stated)	0.891 µM [falling, partial curve, poor fit]	–

Structure (SMILES)	AC50 [1]	AC50 [2]
Cc1cc(C=O)c(C)n1C1CC1	–	1.78 µM [rising, full curve, poor fit]
Cc1ccc(OCCSc2nc3ccc(NC(=O)c4ccc5c(c4)OCO5)cc3s2)cc1	12.6 µM [falling, partial curve]	22.4 µM [falling, partial curve]
CCCCn1c(O)c(C(CC)=Nc2ccc3c(c2)CCC3)c(=O)[nH]c1=O	17.8 µM [rising, single point]	14.1 µM [rising, single point]
CCCCn1c(O)c(C=NCCCN(C)C)c(=O)[nH]c1=O	–	0.141 µM [falling, single point]
O=C(CCc1nc(C2=CCN(Cc3cccc(Cl)c3)CC2)no1)Nc1ccccc1F	3.55 µM [rising, partial curve]	6.31 µM [rising, partial curve]
O=C1NC(=O)N(Cc2ccccc2)C(=O)/C1=C\c1ccco1	–	31.6 µM [rising, single point]
CCCn1c(C)c(C(=O)c2ccc3ccccc3c2)c2ccccc21	25.1 µM [falling, single point]	14.1 µM [falling, single point]
CCn1nc(-c2cccs2)nc2c(=O)n(C)c(=O)nc1-2	3.98 µM [falling, full curve]	7.08 µM [falling, full curve]
c1ccc2c(CNC3CCCCC3)c[nH]c2c1	28.2 µM [falling, single point]	1.12 µM [falling, partial curve, poor fit]
CCCN1CCc2cccc3c2C1Cc1ccc(O)c(O)c1-3 (configuration not stated)	15.8 µM [falling, partial curve]	12.6 µM [falling, partial curve]
c1ccc(C2CC2)c(OCC2=NCCN2)c1	0.00562 µM [rising, full curve, poor fit]	0.0562 µM [rising, full curve, poor fit]
CN1Cc2c(ccc3c2OCO3)C2C(O)Cc3cc4c(cc3C21)OCO4 (configuration not stated)	12.6 µM [falling, partial curve]	15.8 µM [falling, single point]
COC(=O)CCCNC(=O)CN1CC(c2ccccc2)CC1=O (configuration not stated)	–	0.2 µM [rising, partial curve]
COc1ccc(N(CC(=O)Nc2cccc(SC)c2)S(C)(=O)=O)cc1Cl	–	3.55 µM [rising, full curve]
CCC(CO)NC(=O)C1C=C2c3cccc4[nH]cc(c34)CC2N(C)C1 (configuration not stated)	0.0355 µM [rising, full curve, poor fit]	6.31 µM [rising, single point]
CNC(C)(C)Cc1ccccc1	0.0126 µM [falling, full curve, poor fit]	0.00316 µM [falling, full curve, poor fit]
OC(O)C(Cl)(Cl)Cl	0.0158 µM [falling, full curve, poor fit]	11.2 µM [falling, partial curve, poor fit]
O=C(CSc1ccccn1)Nc1cccc2ccccc12	–	28.2 µM [falling, partial curve, poor fit]
COc1ccc(/C=C/c2nc3ccccc3c(=O)n2-c2ccc(C)cc2)cc1O	14.1 µM [falling, partial curve, poor fit]	–
Cc1c(C=O)c2ccccc2n1Cc1ccc(F)cc1	–	35.5 µM [falling, single point]
COc1cc2c(cc1OC)CN(c1ccc([N+](=O)[O-])c(C(F)(F)F)c1)CC2	35.5 µM [falling, single point]	35.5 µM [falling, single point]
NP(=O)(Oc1ccccc1Cl)Oc1ccccc1Cl	–	0.0316 µM [falling, full curve, poor fit]
CC[N+](CC)(CC)CCOc1cccc(OCC[N+](CC)(CC)CC)c1OCC[N+](CC)(CC)CC	–	35.5 µM [falling, single point]
CCCCC(=O)C1C(=O)NC(=O)NC1=O	–	0.0224 µM [rising, full curve, poor fit]
Cc1ccc(S(=O)(=O)NCC(=O)OCC(=O)N2N=C(c3ccc(Cl)cc3)CC2c2ccco2)cc1C (configuration not stated)	–	15.8 µM [rising, single point]
O=c1c(O)c(-c2ccc(O)c(O)c2)oc2cc(O)cc(O)c12	355 nM [falling, single point] and 35.5 µM [falling, single point] and 22.4 µM [falling, partial curve]	14.1 µM [falling, partial curve]
